{"source": "PubChem BioAssay AID1259254 (NCATS, 2017)", "aim": "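Finding genes that stop cells copying their DNA twice in one cycle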 (primary screen)", "cell system": "human HCT116 colorectal cancer cells", "knock-down reagent": "single siRNA against human genes", "time to read-out": "3 days", "measured": "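Imaged Hoechst DNA stain sorts each cell into a cycle phase by DNA amount; per plate, G2 fraction set to 0% for non-targeting and 100% for GMNN siRNA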", "direction": "G2 robust z-score and G2 cells, % of GMNN control: higher = more G2 cells, more excess DNA replication", "call rule": "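Active siRNAs have a G2 robust z of 5 or more median absolute deviations over the median, which in these data means about 38% or higher of GMNN control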", "note": "Shown is an unselected part of about 59,000 reagents tested. About 1,550 of them (2.6%) count as active. 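G2 share is only a proxy for re-replication; each gene was hit by three separate siRNAs, and active genes were retested.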 A number with no mark means an inactive call. Not all columns of the deposit are shown. The record does not give: the amount of reagent."}
{"gene":"RIBC2","PubChem SID":"SID160732857","G2 robust z-score":1.97,"G2 cells, % of GMNN control":16.9}
{"gene":"RIBC2","PubChem SID":"SID160737704","G2 robust z-score":0.88,"G2 cells, % of GMNN control":9.16}
{"gene":"RIBC2","PubChem SID":"SID160737706","G2 robust z-score":-0.353,"G2 cells, % of GMNN control":0.487}
{"gene":"C1orf141","PubChem SID":"SID160767040","G2 robust z-score":1.43,"G2 cells, % of GMNN control":13.1}
{"gene":"C1orf141","PubChem SID":"SID160767041","G2 robust z-score":-0.725,"G2 cells, % of GMNN control":-2.14}
{"gene":"C1orf141","PubChem SID":"SID160767042","G2 robust z-score":0.738,"G2 cells, % of GMNN control":8.16}
{"gene":"OR5AK2","PubChem SID":"SID160766428","G2 robust z-score":-0.405,"G2 cells, % of GMNN control":0.114}
{"gene":"OR5AK2","PubChem SID":"SID160766429","G2 robust z-score":-0.78,"G2 cells, % of GMNN control":-2.52}
{"gene":"OR5AK2","PubChem SID":"SID160766430","G2 robust z-score":0.496,"G2 cells, % of GMNN control":6.45}
{"gene":"GPC6","PubChem SID":"SID160725136","G2 robust z-score":-1.2,"G2 cells, % of GMNN control":-5.47}
{"gene":"GPC6","PubChem SID":"SID160725142","G2 robust z-score":-0.677,"G2 cells, % of GMNN control":-1.8}
{"gene":"GPC6","PubChem SID":"SID160725152","G2 robust z-score":0.279,"G2 cells, % of GMNN control":4.93}
{"gene":"SCNN1D","PubChem SID":"SID160716425","G2 robust z-score":1.65,"G2 cells, % of GMNN control":14.6}
{"gene":"SCNN1D","PubChem SID":"SID160724063","G2 robust z-score":1.15,"G2 cells, % of GMNN control":11.1}
{"gene":"SCNN1D","PubChem SID":"SID160724064","G2 robust z-score":-0.174,"G2 cells, % of GMNN control":1.74}
{"gene":"AMPH","PubChem SID":"SID160717274","G2 robust z-score":2.08,"G2 cells, % of GMNN control":17.6}
{"gene":"AMPH","PubChem SID":"SID160717283","G2 robust z-score":1.9,"G2 cells, % of GMNN control":16.3}
{"gene":"AMPH","PubChem SID":"SID160717291","G2 robust z-score":-0.149,"G2 cells, % of GMNN control":1.92}
{"gene":"STAT5A","PubChem SID":"SID160717440","G2 robust z-score":-0.481,"G2 cells, % of GMNN control":-0.42}
{"gene":"STAT5A","PubChem SID":"SID160717441","G2 robust z-score":0.222,"G2 cells, % of GMNN control":4.53}
{"gene":"STAT5A","PubChem SID":"SID160717442","G2 robust z-score":1.12,"G2 cells, % of GMNN control":10.9}
{"gene":"WDR7","PubChem SID":"SID160736042","G2 robust z-score":-0.689,"G2 cells, % of GMNN control":-1.88}
{"gene":"WDR7","PubChem SID":"SID160736043","G2 robust z-score":4.13,"G2 cells, % of GMNN control":32}
{"gene":"WDR7","PubChem SID":"SID160736044","G2 robust z-score":3.39,"G2 cells, % of GMNN control":26.8}
{"gene":"SLC22A11","PubChem SID":"SID160744556","G2 robust z-score":2.03,"G2 cells, % of GMNN control":17.2}
{"gene":"SLC22A11","PubChem SID":"SID160744557","G2 robust z-score":2.23,"G2 cells, % of GMNN control":18.7}
{"gene":"SLC22A11","PubChem SID":"SID160744558","G2 robust z-score":-0.685,"G2 cells, % of GMNN control":-1.85}
{"gene":"PRRC1","PubChem SID":"SID160757266","G2 robust z-score":1.53,"G2 cells, % of GMNN control":13.8}
{"gene":"PRRC1","PubChem SID":"SID160757267","G2 robust z-score":-0.151,"G2 cells, % of GMNN control":1.9}
{"gene":"PRRC1","PubChem SID":"SID160757268","G2 robust z-score":-0.187,"G2 cells, % of GMNN control":1.65}
